According to patent publication US20140178394A1:
Results are given in words; binding and its absence hold for the method and conditions named. Binding can be weak; no strength is given.

Biological target: HLA-A*0201 on the CEM.T2 cell line (T2) (human)
Assay: T2 cell HLA-A*0201 stabilization, flow cytometry

binding: binds
Binder: VLVPPLPSL [antigen peptide N4-145 (…)]
